Results as given in the supplement of paper PMC6078165.
The reference is the same well before dosing, and untreated signal decays as well.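 Labels refer to human fibroblasts, largely primary: uterine (C12385, HUF), lung (H6013), bone (Hs27A), adrenal (HADF), skin (WS1), plus mammary HMF and breast cancer-associated Hs343T. Cancer lines are basal-like or mesenchymal-like triple-negative breast cancer. The paper counts as hits responses shifting over 3x the replicate standard deviation. The tissue of the other fibroblasts is not given here.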

System: HCC1143
Test: relative JC-1 red fluorescence (viability) vs pre-drug, coculture with fibroblast (fraction); higher = more viable cancer cells
Method: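 JC-1 labelled TNBC cells cocultured 1:1 (1,500 cells each) with CellTrace Violet stained primary or stromal fibroblasts in 384-well plates in FluoroBrite medium, treated with one of 42 anticancer drugs at 0.1, 1, 10 or 100 uM. JC-1 red fluorescence (mitochondrial integrity in cancer cells only) was read by plate reader every 8 h for 72 h. Values are normalised to each well's pre-drug value. The stock of one drug was tenfold lower, so its dose labels may be too high.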

CN(C)CCOc1ccc(/C(=C(/CCCl)c2ccccc2)c2ccccc2)cc1 [Toremifene]
relative JC-1 red fluorescence
Settings	8 h	16 h	24 h	32 h	40 h	48 h	56 h	64 h	72 h
0.1 µM, coculture fibroblast: C12385	0.8412	0.7617	0.6791	0.6063	0.536	0.476	0.429	0.383	0.359
0.1 µM, coculture fibroblast: H6013	0.754	0.663	0.621	0.6044	0.5413	0.52572	0.48998	0.4717	0.44
0.1 µM, coculture fibroblast: H6019	0.792	0.727	0.676	0.612	0.565	0.534	0.483	0.446	0.412
0.1 µM, coculture fibroblast: H6076	0.807	0.807	0.76	0.712	0.655	0.632	0.599	0.567	0.577
0.1 µM, coculture fibroblast: H6231	0.852	0.8026	0.7419	0.673	0.637	0.611	0.572	0.531	0.508
0.1 µM, coculture fibroblast: HADF	0.801	0.736	0.704	0.701	0.6	0.567	0.527	0.498	0.488
0.1 µM, coculture fibroblast: HCFa	0.795	0.734	0.688	0.658	0.579	0.55	0.507	0.47	0.435
0.1 µM, coculture fibroblast: HCPF	0.8341	0.7948	0.741	0.683	0.6337	0.6023	0.563	0.534	0.5251
0.1 µM, coculture fibroblast: HHSteC	0.817	0.723	0.683	0.645	0.569	0.545	0.5	0.469	0.438
0.1 µM, coculture fibroblast: HMF	0.799	0.863	0.781	0.702	0.685	0.644	0.605	0.562	0.529
0.1 µM, coculture fibroblast: HPFa	0.9011	0.796	0.754	0.672	0.614	0.584	0.517	0.47	0.439
0.1 µM, coculture fibroblast: HUF	0.8507	0.7809	0.72	0.643	0.595	0.559	0.506	0.47	0.442
0.1 µM, coculture fibroblast: Hs5	0.865	0.886	0.8484	0.815	0.746	0.71	0.677	0.643	0.633
0.1 µM, coculture fibroblast: Hs27A	0.736	0.641	0.6	0.622	0.499	0.478	0.431	0.401	0.386
0.1 µM, coculture fibroblast: Hs343T	0.831	0.859	0.821	0.747	0.727	0.685	0.643	0.615	0.601
0.1 µM, coculture fibroblast: WS1	0.842	0.79	0.732	0.673	0.631	0.613	0.5754	0.5533	0.534
1 µM, coculture fibroblast: C12385	0.8573	0.7777	0.694	0.619	0.553	0.511	0.4617	0.424	0.402
1 µM, coculture fibroblast: H6013	0.793	0.6955	0.67	0.658	0.573	0.552	0.522	0.494	0.459
1 µM, coculture fibroblast: H6019	0.835	0.76	0.729	0.665	0.63	0.602	0.563	0.522	0.489
1 µM, coculture fibroblast: H6076	0.8229	0.879	0.821	0.7497	0.728	0.703	0.671	0.643	0.637
1 µM, coculture fibroblast: H6231	0.847	0.847	0.7676	0.661	0.675	0.643	0.606	0.56	0.534
1 µM, coculture fibroblast: HADF	0.774	0.706	0.656	0.673	0.568	0.528	0.496	0.466	0.473
1 µM, coculture fibroblast: HCFa	0.796	0.698	0.6622	0.65	0.563	0.53	0.487	0.452	0.434
1 µM, coculture fibroblast: HCPF	0.84	0.828	0.779	0.715	0.693	0.664	0.623	0.583	0.569
1 µM, coculture fibroblast: HHSteC	0.804	0.714	0.655	0.6174	0.5363	0.494	0.4494	0.422	0.3987
1 µM, coculture fibroblast: HMF	0.837	0.866	0.8	0.726	0.708	0.688	0.657	0.624	0.608
1 µM, coculture fibroblast: HPFa	0.949	0.8572	0.815	0.736	0.654	0.628	0.568	0.515	0.464
1 µM, coculture fibroblast: HUF	0.9218	0.8539	0.77805	0.717	0.676	0.6504	0.609	0.574	0.552
1 µM, coculture fibroblast: Hs5	0.8486	0.863	0.817	0.765	0.701	0.671	0.636	0.608	0.589
1 µM, coculture fibroblast: Hs27A	0.769	0.695	0.663	0.681	0.551	0.527	0.47	0.429	0.407
1 µM, coculture fibroblast: Hs343T	0.822	0.854	0.777	0.69	0.672	0.63	0.567	0.53	0.499
1 µM, coculture fibroblast: WS1	0.854	0.773	0.716	0.642	0.579	0.534	0.491	0.453	0.433
10 µM, coculture fibroblast: C12385	0.8871	0.8421	0.7998	0.7411	0.699	0.64	0.6066	0.5605	0.529
10 µM, coculture fibroblast: H6013	0.783	0.755	0.739	0.758	0.687	0.659	0.644	0.63	0.723
10 µM, coculture fibroblast: H6019	0.8745	0.8519	0.811	0.765	0.735	0.708	0.677	0.635	0.606
10 µM, coculture fibroblast: H6076	0.816	0.9551	0.9303	0.7932	0.841	0.804	0.766	0.725	0.704
10 µM, coculture fibroblast: H6231	0.812	0.944	0.891	0.598	0.803	0.751	0.73	0.691	0.647
10 µM, coculture fibroblast: HADF	0.75	0.718	0.701	0.743	0.6368	0.598	0.584	0.569	0.69
10 µM, coculture fibroblast: HCFa	0.834	0.835	0.847	0.897	0.808	0.787	0.748	0.716	0.779
10 µM, coculture fibroblast: HCPF	0.817	0.839	0.955	0.686	0.884	0.838	0.812	0.783	0.746
10 µM, coculture fibroblast: HHSteC	0.809	0.78	0.76	0.762	0.679	0.651	0.625	0.599	0.618
10 µM, coculture fibroblast: HMF	0.814	0.9918	0.917	0.709	0.825	0.772	0.727	0.682	0.614
10 µM, coculture fibroblast: HPFa	0.918	0.869	0.828	0.745	0.717	0.684	0.648	0.618	0.589
10 µM, coculture fibroblast: HUF	0.9195	0.891	0.883	0.833	0.788	0.744	0.704	0.666	0.629
10 µM, coculture fibroblast: Hs5	0.868	0.774	0.897	0.901	0.871	0.892	0.819	0.861	0.802
10 µM, coculture fibroblast: Hs27A	0.758	0.707	0.685	0.742	0.582	0.523	0.511	0.484	0.616
10 µM, coculture fibroblast: Hs343T	0.836	0.89	0.914	0.785	0.883	0.83	0.777	0.75	0.702
10 µM, coculture fibroblast: WS1	0.903	0.892	0.897	0.859	0.839	0.808	0.777	0.765	0.745
100 µM, coculture fibroblast: C12385	0.326	0.159	0.13	0.102	0.0697	0.052	0.0333	0.0143	0.0273
100 µM, coculture fibroblast: H6013	0.363	0.254	0.233	0.202	0.17	0.159	0.122	0.0985	0.0397
100 µM, coculture fibroblast: H6019	0.3569	0.23	0.203	0.169	0.14	0.132	0.109	0.0865	0.0723
100 µM, coculture fibroblast: H6076	0.362	0.213	0.203	0.209	0.128	0.109	0.0724	0.0463	0.0353
100 µM, coculture fibroblast: H6231	0.547	0.362	0.284	0.332	0.212	0.184	0.147	0.109	0.0912
100 µM, coculture fibroblast: HADF	0.379	0.246	0.202	0.172	0.138	0.123	0.0901	0.0637	0.00965
100 µM, coculture fibroblast: HCFa	0.352	0.25	0.234	0.21	0.171	0.156	0.122	0.0955	0.0437
100 µM, coculture fibroblast: HCPF	0.5461	0.366	0.302	0.329	0.217	0.188	0.148	0.112	0.096
100 µM, coculture fibroblast: HHSteC	0.28	0.213	0.192	0.158	0.126	0.11	0.0769	0.0563	0.0285
100 µM, coculture fibroblast: HMF	0.43	0.199	0.171	0.193	0.0986	0.0805	0.0483	0.0226	0.0355
100 µM, coculture fibroblast: HPFa	0.457	0.378	0.345	0.29	0.246	0.229	0.188	0.161	0.141
100 µM, coculture fibroblast: HUF	0.414	0.317	0.28	0.25	0.216	0.196	0.158	0.133	0.11
100 µM, coculture fibroblast: Hs5	0.487	0.336	0.307	0.309	0.208	0.179	0.144	0.111	0.097
100 µM, coculture fibroblast: Hs27A	0.333	0.253	0.22	0.223	0.174	0.191	0.156	0.142	0.0795
100 µM, coculture fibroblast: Hs343T	0.336	0.197	0.174	0.193	0.107	0.0889	0.0567	0.0332	0.0132
100 µM, coculture fibroblast: WS1	0.35	0.194	0.175	0.138	0.105	0.0883	0.0657	0.0455	0.0381
